# Data from PubChem BioAssay AID445 (National Center for Advancing Translational Sciences (NCATS), 2006).
# The other results are listed elsewhere or left out. These are further read-outs of the screen, such as a control signal, another cell line or another target. No call is given for them. Compounds called inactive in the main read-out are mostly missing here. The note in brackets gives the kind of curve behind each potency; many fits are weak.
# Test: IkB Signaling
# Details: ABC-DLBCL IkBa-CBG/CBR dual luciferase ratio (green luciferase fused to IkBa over red control in OCI-Ly3 lymphoma cells), 4 h
# Procedure, shortened: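 In this assay, an IκBα–CBG68 fusion accumulates when IKK-driven degradation is blocked; native CBR normalizes for cell number. OCI-Ly3 cells were treated 4 h with compound and doxycycline, then green and red light read after Chroma-Glo addition.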
# [1] = measured here: control luc red channel unless noted
smiles,measurement,setting,value
CSCSC1=C(C#N)C(c2ccccc2Cl)C(C(C)=O)=C(C)N1 (stereo not drawn),AC50,[1],"10 µM [falling, partial curve]"
CC1CCC(N2CC(=O)N(CCC3=CCCCC3)C(c3ccc(F)cc3)C2=O)CC1 (stereo not drawn),AC50,[1],"39.8 µM [falling, partial curve]"
O=C(CN1CCC(n2nnc3ccccc32)CC1)Nc1ccc2c(c1)CCC2,AC50,[1],"15.8 µM [falling, partial curve]"
CCn1c(SCc2nc3ccccc3s2)nc2cc(S(=O)(=O)N3CCOCC3)ccc21,AC50,[1],"7.94 µM [falling, partial curve]"
COc1cccc(C(=O)Nc2nc3ccc(S(=O)(=O)N4CCCC4)cc3s2)c1,AC50,[1],"15.8 µM [falling, partial curve]"
O=C(Nc1ccc(Br)cc1)c1cc(-c2cccs2)nc2ccccc12,AC50,[1],"10 µM [rising, partial curve] [measured here: IkB-luc green channel]"
CC1CCC(N2CC(=O)N(C3CCCCC3)C(c3ccc(Cl)cc3)C2=O)CC1 (stereo not drawn),AC50,[1],"3.16 µM [rising, partial curve]"
COc1ccc(-c2cc(C(=O)Oc3ccc(C)cc3)c3ccccc3n2)cc1,AC50,[1],"5.01 µM [rising, full curve, poor fit]"
CC(C)Oc1ccc(C(=O)N2CCC(c3nc4ccccc4o3)CC2)cc1,AC50,[1],"10 µM [falling, partial curve]"
O=C(CCC(=O)c1cccs1)Nc1ccccc1F,AC50,[1],"20 µM [falling, partial curve]"
Nc1nc(NCc2c(F)cccc2Cl)nn1-c1ccccc1,AC50,[1],"25.1 µM [falling, single point]"
O=C1CSC2(C(=O)N(Cc3ccccc3F)c3ccccc32)N1c1cccc(C(F)(F)F)c1 (stereo not drawn),AC50,[1],"10 µM [falling, partial curve]"
CC(C)(C)C1CCc2onc(C(=O)NCc3ccc(F)cc3)c2C1 (stereo not drawn),AC50,[1],"15.8 µM [falling, partial curve]"
c1coc(-c2nc3nc4ccccc4nc3n2CC2CCCO2)c1 (stereo not drawn),AC50,[1],"12.6 µM [falling, partial curve]"
Cc1ccc(S(=O)(=O)c2cnc(SCC(=O)Nc3ccc4c(c3)OCCO4)[nH]c2=O)cc1Cl,AC50,[1],"10 µM [falling, partial curve]"
Cc1ccccc1NC(=O)c1cn(-c2ccccc2)nc1-c1ccccc1,AC50,[1],"0.00631 µM [rising, full curve, poor fit]"
Cc1ccccc1-c1ccnc2[nH]n(-c3ccccc3)c(=O)c12,AC50,[1],"20 µM [falling, partial curve]"
COc1ccccc1C(=O)Nc1cccc(C(=O)OCc2cc(=O)n3nc(C4CC4)sc3n2)c1,AC50,[1],"3.16 µM [falling, full curve, poor fit]"
O=C(Nc1ccc(OC(F)(F)F)cc1)C(Cc1ccccc1)NS(=O)(=O)c1cccc2nsnc12 (stereo not drawn),AC50,[1],"1.58 µM [falling, partial curve]"
Cc1ccc(C)c(CNC(=O)c2ccc3c(c2)nc2n3CCOC2)c1,AC50,[1],"0.0398 µM [falling, full curve, poor fit]"
COc1cccc(CNC(=O)Cn2ccc3cc(S(=O)(=O)N4CCCC4)ccc32)c1OC,AC50,[1],"3.16 µM [falling, full curve, poor fit]"
CCOC(=O)c1c(Nc2ccc(O)cc2)nnc(-c2ccccc2)c1-c1ccccc1,AC50,[1],"10 µM [falling, partial curve]"
Cc1cc(Br)ccc1OCC(=O)N(Cc1nc(-c2ccccc2)no1)C(C)C,AC50,[1],"25.1 µM [falling, partial curve]"
CCc1ccc(C(=O)COC(=O)C(Cc2c[nH]c3ccccc23)NC(=O)c2ccc(CC)cc2)cc1 (stereo not drawn),AC50,[1],"12.6 µM [falling, partial curve]"
Cc1ccc(NC(=O)CSc2nnc(-c3nnn(-c4ccc(F)cc4)c3C)o2)cc1Br,AC50,[1],"39.8 µM [falling, single point]"
Cc1nc(-c2cccc(F)c2)sc1CCNC(=O)c1c(F)cccc1Cl,AC50,[1],"15.8 µM [falling, single point]"
COc1cccc(N2CCN(C(=O)c3cc4c(s3)-c3c(C)cccc3OC4)CC2)c1,AC50,[1],"3.16 µM [falling, full curve]"
Cc1ccc(NC(=O)CN2C(=O)COc3ccc(S(=O)(=O)N4CCCCCC4)cc32)cc1Cl,AC50,[1],"15.8 µM [falling, partial curve]"
COc1ccccc1OCC(=O)N(Cc1nc(-c2ccccc2)no1)C1CCCCC1,AC50,[1],"25.1 µM [falling, single point]"
O=C(c1ccc(F)cc1F)N1CCC(c2nc(-c3ccc(S(=O)(=O)N4CCCC4)cc3)no2)CC1,AC50,[1],"39.8 µM [falling, single point]"
CCN(CC)S(=O)(=O)c1ccc2c(c1)nc(CN(C)C(=O)Nc1ccc(F)cc1)n2C,AC50,[1],"2.51 µM [rising, partial curve]"
COc1cc(Cl)c(C)cc1NC(=O)CCc1c(C)nc2c3cccnc3nn2c1C,AC50,[1],"39.8 µM [falling, single point]"
O=C1CC(c2ccco2)Cc2nc(N3CCc4ccccc4C3)ncc21 (stereo not drawn),AC50,[1],"25.1 µM [falling, single point]"
O=C(Nc1ccc(C(=O)N2CCCCC2)cc1)c1nsc2ccccc12,AC50,[1],"0.158 µM [falling, full curve]"
O=C(Nc1nc2n(n1)C(c1ccccc1)C=C(c1ccccc1)N2)c1ccccc1 (stereo not drawn),AC50,[1],"31.6 µM [falling, partial curve]"
Fc1ccc(Nc2nc(SCc3cccc(Cl)c3)nc3ccccc23)cc1,AC50,[1],"39.8 µM [falling, single point]"
CSc1nc(-c2ccccc2Cl)nc2c1Cc1c(CO)cnc(C)c1O2,AC50,[1],"0.794 µM [rising, full curve]"
Cc1oc(-c2ccc3c(c2)OCCO3)cc1C(=O)O,AC50,[1],"0.0794 µM [falling, full curve]"
COc1ccc2[nH]c(=O)c(C(c3nnnn3C3CCCC3)N(C)C3CCCCC3)cc2c1 (stereo not drawn),AC50,[1],"39.8 µM [falling, single point]"
CCc1nnc2c(N3CCN(c4cccc(C(F)(F)F)c4)CC3)nc3ccccc3n12,AC50,[1],"10 µM [falling, partial curve]"
COc1ccc(N(CC(=O)N2CCc3ccccc3C2)S(=O)(=O)c2ccc(C)cc2)cc1Cl,AC50,[1],"10 µM [falling, partial curve, poor fit]"
COc1ccc(C2=C(C(C)=O)Sc3nnc(-c4ccc(Cl)cc4)n3N2C(C)=O)cc1OC,AC50,[1],"1.58 µM [falling, partial curve]"
O=C(Nc1c(C(=O)N2CCN(c3ccccc3F)CC2)oc2ccccc12)c1ccco1,AC50,[1],"5.01 µM [falling, partial curve]"
CNC(=O)[C@@H]1O[C@@H](n2cnc3c(N)ncnc32)[C@@H](O)[C@H]1O,AC50,measured here: IkB-luc green channel,"0.0316 µM [rising, full curve, poor fit]"
same,AC50,measured here: control luc red channel,"0.0501 µM [rising, full curve, poor fit]"
N#CC1=C2SCN(C3CCCCC3)CN2C(=O)CC1c1ccc(Br)cc1 (stereo not drawn),AC50,[1],"1 µM [falling, partial curve]"
COc1ccc(-n2nc3cc(C)c(N)c(Br)c3n2)cc1,AC50,[1],"31.6 µM [rising, single point] [measured here: IkB-luc green channel]"
O=C1c2ccccc2C(=O)N1CCCCN(C(=O)c1ccco1)c1ccc(Cl)cc1,AC50,[1],"12.6 µM [falling, partial curve]"
COc1ccc(NCc2cccn2-c2nnc(N3CCC(C)CC3)s2)c(OC)c1,AC50,[1],"10 µM [falling, partial curve]"
O=C(CSc1nc2c(c(=O)[nH]1)CCC2)Nc1cc(C(F)(F)F)ccc1Cl,AC50,[1],"31.6 µM [falling, single point]"
Cn1ccc2c(OCC(=O)NCc3ccc(F)cc3)cccc2c1=O,AC50,[1],"12.6 µM [rising, partial curve]"
COc1c(Cl)cc(Cl)cc1C(=O)Nc1cccc2cccnc12,AC50,[1],"12.6 µM [falling, partial curve]"
CCc1cccc(NC(=O)CSc2nccn2C)c1,AC50,[1],"1 µM [rising, full curve]"
CCOC(=O)c1cc(S(=O)(=O)Nc2cc(C)c(Cl)cc2OC)[nH]n1,AC50,[1],"10 µM [falling, partial curve]"
CCc1nnc(NC(=O)c2nc(SCc3ccc(F)cc3)ncc2Cl)s1,AC50,[1],"31.6 µM [falling, single point]"
CCOc1ccc(OCC)c(NS(=O)(=O)c2ccc3c(c2)CCCN3C(C)=O)c1,AC50,[1],"1 µM [rising, full curve]"
CCCCn1c(C2CC(=O)N(c3ccc(OCC)cc3)C2)nc2ccccc21 (stereo not drawn),AC50,[1],"15.8 µM [falling, partial curve]"
O=C(OCC1CCCO1)c1ccc2c(c1)N(Cc1c(F)cccc1Cl)C(=O)c1ccccc1S2(=O)=O (stereo not drawn),AC50,[1],"0.1 µM [rising, full curve, poor fit]"
CCOCCn1c(=NC(=O)c2ccc3c(c2)OCCO3)sc2cc(OCC)ccc21,AC50,[1],"5.01 µM [falling, partial curve, poor fit]"
COCC(C)NC(=O)C1=CC(c2ccc3c(c2)OCO3)=NS(=O)(=O)N1C (stereo not drawn),AC50,[1],"25.1 µM [falling, single point]"
O=C(Nc1ccccc1C(F)(F)F)C1CCN(c2nnc(-n3cccc3)s2)CC1,AC50,[1],"39.8 µM [falling, single point]"
Cc1cccc(S(=O)(=O)c2cn(Cc3ccc(F)cc3)c3cc(N4CCOCC4)c(F)cc3c2=O)c1,AC50,[1],"39.8 µM [falling, single point]"
O=C(Cn1cc(SCc2ccc(F)cc2)c2ccccc21)N1CCCC1,AC50,[1],"20 µM [falling, single point]"

# 5 entries picked at random from the list so far:
smiles,measurement,setting,value
O=C1CSC2(C(=O)N(Cc3ccccc3F)c3ccccc32)N1c1cccc(C(F)(F)F)c1 (stereo not drawn),AC50,[1],"10 µM [falling, partial curve]"
CC1CCC(N2CC(=O)N(CCC3=CCCCC3)C(c3ccc(F)cc3)C2=O)CC1 (stereo not drawn),AC50,[1],"39.8 µM [falling, partial curve]"
c1coc(-c2nc3nc4ccccc4nc3n2CC2CCCO2)c1 (stereo not drawn),AC50,[1],"12.6 µM [falling, partial curve]"
Cc1ccccc1-c1ccnc2[nH]n(-c3ccccc3)c(=O)c12,AC50,[1],"20 µM [falling, partial curve]"
O=C(Nc1ccccc1C(F)(F)F)C1CCN(c2nnc(-n3cccc3)s2)CC1,AC50,[1],"39.8 µM [falling, single point]"
